Laboratory results as given in paper PMC8591604 (Journal of Medicinal Chemistry, 2021).

test: general procedure: Fmoc solid-phase peptide synthesis; Rink amide MBHA resin (0.65 mmol/g, 100–200 mesh); settings: whole synthesis, RP-HPLC, Phenomenex Kinetex XB-C18 column, water/acetonitrile with 0.05% TFA

| Substance | final HPLC purity [%] |
| --- | --- |
| CF-GLN-pY -IDLDL | 93 |
| CF-GLN-pY -IDLDW | 96 |
| CF-GLN- Y -IDLDL | 99 |
| N-pY -IDLDL | 92 |
| GLN-pY -IDLDL | 95 |
| LN-pY -IDLEW | 98 |
| LN-pY -IDLDF | 95 |
| GLN- F2Pmp-IDLDW | 97 |
| LN-pY -IDLDW | 95 |
| CF-GLN-pY -IDLEW | 97 |
| CF-GLN-F2Pmp-IDLDW | 97 |
| LN-pY -IDLDL | 92 |
